The whole screen tested about 310,000 compounds, of which about 17,000 (5.5%) were called active. The inconclusive results got no clear call from the source; some entries with a clear call stand among them for comparison. Calls come from the whole dose curve; as a rule, active = well fitted inhibition curve with a large enough effect; inconclusive = small, poorly fitted or top-dose-only effect, or effect the other way; inactive = no such curve, though single readings can be large or run the other way. Where the call is inconclusive, the potency comes from a doubtful curve fit.
target: Nuclear receptor ROR-gamma (Mus musculus) (UniProt P51450); experiment: qHTS for inhibitors of ROR gamma transcriptional activity; conditions: Drosophila S2 Gal4-RORgamma UAS-luciferase reporter, 20 h; series mostly up to 53.6 µM; note: nearly all actives have a fitted effect of over 60% in size
Summary of the method: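 Schneider cells (Drosophila), stable Gal4 DBD–ROR gamma + UAS-luc; 1 hr cmpd preincubation; Cu2+ induction 700 uM final; 20 hr ambient; luminescence.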
Potency is the fitted concentration of half-maximal effect.

Amino acid sequences for entries named in this document (tags omitted). A change or cut given only in a name is not applied to a line headed by its entry.
UniProt P51450: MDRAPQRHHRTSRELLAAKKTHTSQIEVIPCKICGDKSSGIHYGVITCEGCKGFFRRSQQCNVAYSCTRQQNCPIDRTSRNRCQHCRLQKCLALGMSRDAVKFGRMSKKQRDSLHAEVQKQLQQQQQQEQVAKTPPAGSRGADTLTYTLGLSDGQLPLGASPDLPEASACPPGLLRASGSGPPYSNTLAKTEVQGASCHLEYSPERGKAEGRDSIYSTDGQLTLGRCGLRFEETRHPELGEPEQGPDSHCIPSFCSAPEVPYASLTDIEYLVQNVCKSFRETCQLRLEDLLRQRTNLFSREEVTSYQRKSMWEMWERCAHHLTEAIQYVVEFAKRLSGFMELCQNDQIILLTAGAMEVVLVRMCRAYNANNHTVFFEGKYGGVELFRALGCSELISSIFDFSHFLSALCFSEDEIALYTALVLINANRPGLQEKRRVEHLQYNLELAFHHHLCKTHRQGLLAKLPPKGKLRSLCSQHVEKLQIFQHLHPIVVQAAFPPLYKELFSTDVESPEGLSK

Row | SMILES | Potency
1 | CCCC(C)C(=O)Nc1ncc(S(=O)(=O)c2ccc([N+](=O)[O-])cc2)s1 (configuration not stated) | inactive
2 | CCC1OC(=O)C(C)[C@@H](O[C@H]2C[C@@](C)(OC)C(O)C(C)O2)C(C)[C@@H](O[C@@H]2OC(C)CC(N(C)C)C2O)[C@](C)(O)CC(C)/C(=N\OCOCCOC)[C@H](C)C(O)[C@]1(C)O (some centres not stated) | inactive
3 | CCNC(=S)Nc1ccc(OCC)cc1 | active: 12.6 µM
4 | Cc1ccc(NC(=S)Nc2ccc(Br)cc2)cc1 | active: 7.94 µM
5 | COc1cc(S(=O)(=O)NC2CCCCC2)ccc1Cl | inactive
6 | CCc1nnc(NC(=O)CSc2nc3cc4c(cc3cc2CC)OCCO4)s1 | inconclusive: 35.5 µM [inhibitor, single point]
7 | O=C1CC(N2CCN(C/C=C/c3ccccc3)CC2)C(=O)N1Cc1ccc(N2CCCC2=O)cc1 (configuration not stated) | inactive
8 | CCCCn1c(/N=C/c2cc(OC)ccc2O)nc2ccccc21 | inconclusive: 22.4 µM [inhibitor, single point]
9 | O=C(NNC(=O)c1cc2ccccc2cc1O)c1cccs1 | active: 20 µM
10 | Cc1oc2ccc(OC(=O)N3CCOCC3)cc2c1C(=O)OC(C)C | inactive
11 | CCC(NC(=O)c1cc(COc2ccc(OC)cc2Cl)on1)c1ccncc1 (configuration not stated) | inconclusive: 20 µM [activator, partial curve]
12 | COC(C(=O)N1CCC(n2nccc2NC(=O)C2CC2)CC1)c1ccccc1 (configuration not stated) | inactive
13 | COc1cc(/C=N/Nc2nncn2N)ccc1OCc1c(C)no[n+]1[O-] | inconclusive: 20 µM [inhibitor, single point]
14 | O=C1C(Cl)=C(N2CCCCC2)C(=O)C(Cl)=C1c1cnc(N2CCCCC2)s1 | inconclusive: 17.8 µM [inhibitor, partial curve, poor fit]
15 | COc1ccccc1NC(=S)NCC1CCCO1 (configuration not stated) | inconclusive: 15.8 µM [inhibitor, single point]
16 | CC(=C/c1ccccc1)/C=N/NC(=O)c1ccc2nc[nH]c2c1 | inactive
17 | O=C(CN(CCc1ccccc1)C(=O)CNS(=O)(=O)c1ccccc1)NCC1CCCO1 (configuration not stated) | inconclusive: 0.0891 µM [inhibitor, full curve, poor fit]
18 | N#Cc1ccc(Cn2ccnc2C(=O)Nc2ccccc2)cc1 | inconclusive: 31.6 µM [activator, single point]
19 | O=C(COC(=O)COc1ccccc1Cc1ccccc1)Nc1cccnc1Cl | inactive
20 | CN1CCN(Cc2nc3ccccc3c(=O)n2Cc2nc(-c3ccc4ccccc4c3)cs2)CC1 | inconclusive: 25.1 µM [inhibitor, single point]
21 | CNC(=S)N(CCc1c(C)[nH]c2ccccc12)Cc1cc(OC)c(OC)c(OC)c1 | inconclusive: 12.6 µM [activator, partial curve]
22 | COc1ccccc1NS(=O)(=O)c1cc(NC(=O)c2ccco2)ccc1N1CCOCC1 | inactive
23 | COc1cc(C(=O)NCc2ncccc2C)ccc1OC1CCN(C(C)=O)CC1 | inactive
24 | O=C(NNc1c([N+](=O)[O-])cc(C(F)(F)F)cc1[N+](=O)[O-])c1ccco1 | inconclusive: 12.6 µM [activator, partial curve]

Among those listed so far, eight contain four or more nitrogen atoms.
Row | SMILES | Potency
6 | CCc1nnc(NC(=O)CSc2nc3cc4c(cc3cc2CC)OCCO4)s1 | inconclusive: 35.5 µM [inhibitor, single point]
7 | O=C1CC(N2CCN(C/C=C/c3ccccc3)CC2)C(=O)N1Cc1ccc(N2CCCC2=O)cc1 (configuration not stated) | inactive
12 | COC(C(=O)N1CCC(n2nccc2NC(=O)C2CC2)CC1)c1ccccc1 (configuration not stated) | inactive
13 | COc1cc(/C=N/Nc2nncn2N)ccc1OCc1c(C)no[n+]1[O-] | inconclusive: 20 µM [inhibitor, single point]
16 | CC(=C/c1ccccc1)/C=N/NC(=O)c1ccc2nc[nH]c2c1 | inactive
18 | N#Cc1ccc(Cn2ccnc2C(=O)Nc2ccccc2)cc1 | inconclusive: 31.6 µM [activator, single point]
20 | CN1CCN(Cc2nc3ccccc3c(=O)n2Cc2nc(-c3ccc4ccccc4c3)cs2)CC1 | inconclusive: 25.1 µM [inhibitor, single point]
24 | O=C(NNc1c([N+](=O)[O-])cc(C(F)(F)F)cc1[N+](=O)[O-])c1ccco1 | inconclusive: 12.6 µM [activator, partial curve]

(more compounds)

Row | SMILES | Potency
25 | Cc1ccc(S(=O)(=O)Nc2ccc3[nH]c(=O)[nH]c3c2)c(C)c1 | inconclusive: 35.5 µM [activator, single point]
26 | COc1cc(NC(=O)c2ccc3c(c2)OCO3)ccc1NC(=O)c1ccco1 | inconclusive: 3.98 µM [activator, full curve]
27 | C=CCN1C(=O)/C(=C/C=C2/N(CC)c3ccc(S(=O)(=O)N(C)C)cc3N2CC)SC1=S | inconclusive: 35.5 µM [inhibitor, single point]
28 | Cc1ccc2oc(C(Cl)(Cl)Cl)cc(=O)c2c1 | active: 5.01 µM
29 | Cn1c(=O)c2c(nc(CN3CCN(c4ccccc4)CC3)n2Cc2ccccc2Cl)n(C)c1=O | inconclusive: 2.82 µM [activator, single point]
30 | CC(=O)c1cccc(Nc2cc(C)nc3c(C)cc(C)cc23)c1 | inactive
31 | CCOC(=O)CSC1=C(C#N)C(c2ccccc2C)C2=C(CCCC2=O)N1 (configuration not stated) | inactive
32 | COC(=O)c1ccc(-n2nnnc2SCC(=O)Nc2ccccc2F)cc1 | inconclusive: 22.4 µM [activator, partial curve]
33 | CCOC(=O)CCCCC(=O)c1[nH]c(=O)[nH]c1CSc1nnc2c3cc(Br)ccc3n(C)c2n1 | active: 5.01 µM
34 | O=c1c2cc(N3CCOCC3)ccc2[nH]c(=S)n1CC1CCCO1 (configuration not stated) | inconclusive: 22.4 µM [inhibitor, single point]
35 | O=c1cc[nH]c2c(Cl)cccc12 | inactive
36 | COC(=O)C1NN=C(C(=O)c2ccc(Br)cc2)C1c1cccc(Br)c1 (configuration not stated) | inconclusive: 11.2 µM [activator, partial curve]
37 | O=C(NCc1ccccc1)C1=C[C@H](c2csc3ccccc23)C[C@H](OCCCCO)O1 | inconclusive: 12.6 µM [activator, single point]
38 | O=C(CSc1nnc(COc2ccccc2)o1)N1CCOCC1 | active: 0.112 µM
39 | COc1ccc(CCNc2nc(-c3ccc(O)cc3)cs2)cc1OC | inconclusive: 12.6 µM [activator, partial curve]
40 | O=C(Cn1cc(C(=O)c2cccs2)c2ccccc21)NCc1cccs1 | inconclusive: 7.94 µM [activator, partial curve]
41 | COc1ccc2[nH]cc(CCNc3cc(-c4ccccc4OC)ncn3)c2c1 | inactive
42 | Cn1c(-c2ccc3c(c2)OCO3)cnc1NC(=O)CCC(=O)NCCc1ccccc1 | active: 3.16 µM
43 | COc1ccccc1NC(=O)c1ccc(NC(=O)C2COc3ccccc3O2)cc1 (configuration not stated) | inactive
44 | COc1ccc2c(c1)O/C(=C\c1ccccc1C)C2=O | inconclusive: 0.447 µM [inhibitor, full curve]
45 | C=CCNc1nc(-c2sc(NC(=O)CC)nc2C)cs1 | inconclusive: 31.6 µM [inhibitor, single point]
46 | COc1ccc(C2CC(=O)N3CN(Cc4ccco4)CSC3=C2C#N)cc1 (configuration not stated) | inactive
47 | CCN(Cc1nc(-c2ccccc2)no1)C(=O)c1ccc2c(c1)OCO2 | inactive

Pulled by structure from the list above, 2 records:
Row | SMILES | Potency
29 | Cn1c(=O)c2c(nc(CN3CCN(c4ccccc4)CC3)n2Cc2ccccc2Cl)n(C)c1=O | inconclusive: 2.82 µM [activator, single point]
35 | O=c1cc[nH]c2c(Cl)cccc12 | inactive
